Entries after “also recorded” stand apart in the source; their conditions may differ. At least one compound was matched to its structure with a doubt left.
Key:
HCoV OC43 virus = test: Inhibition against HCoV OC43 virus replication; format: cell-based, human coronavirus HCoV OC43
[1] = system: A549 lung epithelial cells; test: Anti TGF-β1-induced fibrosis assay in A549 lung epithelial cells (microscopy, Western Blot); format: cell-based; settings: 10 ng/ml TGF-β1, 1 μM compound
Procedure: Cell injury was observed by microscopic observation; cell viability was analyzed by CCK-8 assay; and protein expression levels of fibrosis-related indicators were detected by Western Blot method. A549 cells were purchased from ATCC; CCK-8 kit was purchased from Meilunbio, item number MA0218-3; TGF-β1 was purchased from MCE, item number HY-P70543; primary antibodies: Collagen was purchased from ARG21965, item no. arigobio; α-smooth muscle actin was purchased from CST, item no. mAb #19245; VIMENTN was purchased from CST, item no. mAb #5741; GAPDH was purchased from Yeasen, item no. 30201ES20.
Experimental methods: first, 8000 cells/well A549 cells were placed in 96-well plates and incubated overnight. On the second day, 0.1% DMSO was added to the control cells, 10 ng/ml TGF-β1 as well as 0.1% DMSO was added to the model group, 10 ng/ml TGF-β1 as well as 1 μM of the compounds (oxy, 1, 2, tet, 3, 4, 6, 58) was added to the treatment group, and the 96-well plates were sterilized and incubated in a constant temperature incubator for 72 hours. Finally, cell injury and growth were observed using a microscope; the viability of the cells was detected by CCK-8 kit.

[2] = system: inflammatory factor mRNA in Raw 264.7 cells; test: mRNA levels of inflammatory indicators in TNF-α-induced inflammation model of Raw264.7 cells (Q-PCR); format: cell-based; settings: 10 ng/ml TNF-α, 1 μM compound, 16 hours
Procedure: In this embodiment, the effect of compounds on TNF-α-induced inflammation levels in Raw 264.7 cells was analyzed by cell viability combined with inflammatory factor expression levels; cell viability was analyzed by CCK-8 assay; and mRNA expression levels of inflammation-associated indicators were detected by real-time quantitative PCR (Q-PCR) method. Raw 264.7 cells were purchased from ATCC, CCK-8 kit was purchased from Meilunbio, item number MA0218-3, TNF-α was purchased from Merck, item no. GF314.
(§1) Experimental methods: first, 5*10^4 cells/well Raw 264.7 cells were placed in 12-well plates and incubated overnight. On the second day, 0.1% DMSO was added to the control cells, 10 ng/ml TNF-α as well as 0.1% DMSO was added to the model group, 10 ng/ml TNF-α as well as 1 μM of the compounds (oxyacanthine hydrochloride (oxy), 1, 2, tetrandrine (tet), 3, 4, 6, 58) was added to the treatment group, and the 12-well plates were sterilized and incubated in a constant temperature incubator for 16 hours. Cellular mRNA was extracted by lysis using Trizol (Yisheng, 10606ES60) and detected by real-time quantitative PCR after reverse transcription, the primers are the same as in Table 2.

[3] = system: A549 lung epithelial cells; test: Cell viability in TNF-α-induced A549 lung cell injury model (CCK-8); format: cell-based; settings: 10 ng/ml TNF-α, 1 μM compound, 24 hours
[4] = system: IL-6, IL-1β, CXCL9 mRNA in Raw 264.7 cells; test: mRNA levels of inflammatory indicators in LPS-induced inflammation model of Raw264.7 cells (Q-PCR); format: cell-based; settings: 1 μg/ml LPS, 1 μM compound, 16 hours
Procedure: In this example, the effect of the compounds of the present invention on the inflammation level of the LPS-induced inflammation model of Raw 264.7 cells was analyzed by cell viability in combination with inflammatory factors; cell viability was analyzed by CCK-8 assay; and mRNA expression levels of inflammation-related indicators were detected by a real-time quantitative PCR (Q-PCR) method. Raw 264.7 cells were purchased from ATCC; CCK-8 kit was purchased from Meilunbio, item no. MA0218-3; LPS was purchased from Sigma, item no. L2630.
as §1, with “1 μg/ml LPS” for “10 ng/ml TNF-α”, “transcription.” for “transcription, the primers are the same as in Table 2.”

[5] = system: 2019 novel coronavirus (SARS-CoV-2) original strain; test: Replication inhibitory activity against SARS-CoV-2 original strain in Vero E6 cells (qRT-PCR); format: cell-based; settings: inventors' screening of natural products
[6] = system: TNF-α and IL1β mRNA in A549 cells; test: mRNA levels of injury indicators in TNF-α-induced A549 cell injury (Q-PCR); format: cell-based; settings: 10 ng/ml TNF-α, 1 μM compound, 24 hours
Procedure: In this example, cell viability combined with cell death-associated molecules were used to analyze the effect of compounds on the level of TNF-α-induced injury in A549 lung epithelial cells. Cell injury was observed by microscopy; cell viability was analyzed by CCK-8 assay; and mRNA expression levels of injury-related indicators were detected by real-time quantitative PCR (Q-PCR) method. A549 cells were purchased from ATCC, CCK-8 kit was purchased from Meilunbio, item no. MA0218-3, and LPS was purchased from Sigma, item no. L2630.
as §1, with “A549” for “Raw 264.7”, “(oxy,” for “(oxyacanthine hydrochloride (oxy),”, “tet,” for “tetrandrine (tet),”, “24” for “16”, “transcription.” for “transcription, the primers are the same as in Table 2.”

Compound | inhibition against human coronavirus HCoV OC43 (HCoV OC43 virus) | alleviation of TGF-β1-induced fibrosis in A549 lung epithelial cells (Collagen1, α-SMA by WB) [1] | inhibition of inflammatory factors (mRNA) in TNF-α-induced inflammation model [2] | cell survival in TNF-α-induced A549 lung cell injury model [3] | inhibition of inflammatory factors (IL-6, IL-1β, CXCL9 mRNA) in LPS-induced inflammation model [4] | antiviral activity against novel coronaviruses (background statement) [5] | inhibition of injury (damage) factors mRNA in TNF-α-induced A549 lung cell injury model [6]
COc1cc2c3cc1Oc1c(OC)c(OC)cc4c1[C@H](Cc1ccc(cc1)Oc1cc(ccc1C#N)C[C@H]3N(C)CC2)N(C)CC4 [Compound 1] | strong inhibition | alleviated; also recorded: partially alleviate fibrosis | significantly inhibited inflammatory factors; also recorded: significant inhibition | significantly increased cell survival; also recorded: significant difference | significantly inhibited inflammatory factors; also recorded: significant inhibition | – | –
COc1ccc2cc1Oc1ccc(cc1)C[C@H]1c3cc(c(OC)cc3CCN1C)Oc1c(OC)c(OC)cc3c1[C@H](C2)N(C)CC3 [tetrandrine, reference compound] | – | partially alleviate fibrosis | significant inhibition | – | significant inhibition | weak antiviral activity | significantly inhibited
